# Measured values from patent publication US20260167671A1, “IMMUNOMODULATORS” (Bristol-Myers Squibb Company, priority 2021, published 2026).
# Sequences of proteins named here, by UniProt entry; tags and fusion partners are left off. Residues count along the entry.
# UniProt Q9NZQ7, 19-290: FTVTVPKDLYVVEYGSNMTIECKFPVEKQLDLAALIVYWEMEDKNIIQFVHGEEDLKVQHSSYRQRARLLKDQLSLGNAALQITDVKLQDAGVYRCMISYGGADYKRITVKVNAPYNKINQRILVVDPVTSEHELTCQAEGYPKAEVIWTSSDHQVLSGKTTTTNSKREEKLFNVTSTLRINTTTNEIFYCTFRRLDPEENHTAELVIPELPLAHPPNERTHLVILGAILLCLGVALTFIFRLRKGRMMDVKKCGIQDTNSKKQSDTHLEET
# For at least one compound, name, drawing or mass did not settle the structure.
# Molecular target: T1, human PD-L1 (293T-hPD-L1 cells; binding of PE-labeled PD-1-Ig) (Homo sapiens, UniProt Q9NZQ7)
# T1 construct: expressed in transfected cells; host or cells: 293T (human embryonic kidney) stably over-expressing human PD-L1
# Assay: 293T-hPD-L1 Cell Binding High-Content Screening Assay (CBA)
# Details: read-out: 293T-hPD-L1_PD-1 IC50; 293T cells stably over-expressing human PD-L1; PE-labeled human PD-1-Ig 0.5 nM final; 37° C. for 1 h
# Method: 293T-hPD-L1 Cell Binding High-Content Screening Assay (CBA).
# Phycoerythrin (PE) was covalently linked to the Ig epitope tag of human PD-1-Ig and fluorescently-labeled PD-1-Ig was used for binding studies with a human embryonic kidney cell line (293T) stably over-expressing human PD-L1 (293T-hPD-L1). Briefly, 2×10^3 293T-hPD-L1 cells were seeded into 384 well plates in 20 μl of DMEM supplemented with 10% fetal calf serum and cultured overnight. 125 nl of compound was added to cells followed by 5 μl of PE-labeled PD-1-Ig (0.5 nM final), diluted in DMEM supplemented with 10% fetal calf serum, followed by incubation at 37° C. for 1 h. Cells were washed 3× in 100 μl dPBS followed by fixation with 30 μl of 4% paraformaldehyde in dPBS containing 10 μg/ml Hoechst 33342 for 30 min at room temperature. Cells were washed 3× in 100 μl of dPBS followed by final addition of 15 μl of dPBS. Data was collected and processed using a Cell Insight NXT High Content Imager and associated software.
# Table 1 lists the IC50 values for representative examples of this disclosure measured in the 293T-hPD-L1 Cell Binding High-Content Screening Assay.
smiles,measurement,value
CCCC[C@H]1C(=O)N(C)[C@@H](CCCC)C(=O)N[C@@H](CC(C)C)C(=O)N[C@H](C(=O)NCC(=O)N[C@@H](Cc2cn(CCOCCOCCOCCOCCOCCOCCNC(=O)CC[C@H](NC(=O)CCCCCCCCCOc3ccc(C(=O)O)cc3)C(=O)O)nn2)C(=O)O)CSCC(=O)N[C@@H](Cc2ccc(O)cc2)C(=O)N(C)[C@@H](C)C(=O)N[C@@H](CC(N)=O)C(=O)N2CCC[C@H]2C(=O)N[C@@H](CN)C(=O)N[C@@H](CC(C)C)C(=O)N2C[C@H](O)C[C@H]2C(=O)N[C@@H](Cc2c[nH]c3ccccc23)C(=O)N[C@@H](CCN)C(=O)N[C@@H](Cc2cn(CC(=O)O)c3ccccc23)C(=O)N1C [Example 1002],IC50,3.7 nM
